From the supplement of paper PMC11098740
Some of the results follow. Repeats are few or missing, and single values can be far off.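 The assay uses a mixed pool of 41 HAP1 clones in which 61 cancer-associated proteins bear intron-inserted fluorescent tags, and clones are distinguished by image pattern. Results are compared against DMSO-treated control wells, and the BRD4 degrader dBET6 is the positive control.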

biological target: BRD4 (intron 10 mScarlet tag, HAP1) (UniProt O60885); assay: BRD4 median nuclear fluorescence intensity change vs DMSO (log2 fold change); higher = more BRD4 protein; conditions: 6 h

| Compound | BRD4 median nuclear fluorescence intensity change (log2) |
| --- | --- |
| COc1cc2nccc(Oc3ccc(NC(=O)C4(C(=O)Nc5ccc(F)cc5)CC4)cc3)c2cc1OC [cabozantinib] (20 µM) | -0.00306 |
| CC(C)(C)C(=O)OCC(=O)[C@H]1CC[C@H]2[C@@H]3CCC4=CC(=O)CC[C@]4(C)[C@H]3CC[C@]12C [desoxycorticosterone pivalate] (10.0000892 µM) | 0.101 |
| CC1(C)O[C@@H]2[C@@H](CO[C@@]3(COS(N)(=O)=O)OC(C)(C)O[C@@H]23)O1 [topiramate] (10 µM) | 0.0602 |
| CNC(=C[N+](=O)[O-])NCCSCc1csc(CN(C)C)n1 [nizatidine] (10 µM) | 0.133 |
| CCOC(=O)c1ncn2c1CN(C)C(=O)c1cc(F)ccc1-2 [flumazenil] (10.00035031 µM) | 0.0449 |
| NC(=O)c1ncn([C@@H]2O[C@H](CO)[C@@H](O)[C@H]2O)n1 [ribavirin] (10 µM) | 0.0175 |
| Nc1ccn([C@H]2CC[C@@H](COP(=O)(O)OP(=O)(O)OP(=O)(O)O)O2)c(=O)n1 [dideoxycytidine 5'-triphosphate (ddctp)] (10 µM) | 0.173 |
| CC(C)NC(=N)NC(=N)Nc1ccc(Cl)cc1 [proguanil] (9.99926 µM) | 0.0234 |
| C1=N/C2=N/c3ccc(OCCN4CCCC4)c(c3)COC/C=C/COCc3cccc(c3)C(=C1)N2 [pacritinib] (10 µM) | -0.0445 |
| CCCCc1oc2ccc(NS(C)(=O)=O)cc2c1C(=O)c1ccc(OCCCN(CCCC)CCCC)cc1 [dronedarone] (10 µM) | -0.0178 |
| C[C@H]1O[C@H](O[C@H]2[C@H](O)[C@@H](O)[C@@H](O[C@H]3[C@H](O)[C@@H](O)C(O)O[C@@H]3CO)O[C@@H]2CO)[C@H](O)[C@@H](O)[C@@H]1N[C@H]1C=C(CO)[C@@H](O)[C@H](O)[C@H]1O (some centres undefined) [acarbose] (10.0006 µM) | -0.00345 |
| CN(Cc1cnc2nc(N)nc(N)c2n1)c1ccc(C(=O)N[C@@H](CCC(=O)O)C(=O)O)cc1 [methotrexate] (0.04575 µM) | -0.0283 |
| C[C@H]1O[C@@H](O[C@H]2[C@@H](O)C[C@H](O[C@H]3[C@@H](O)C[C@H](O[C@H]4CC[C@@]5(C)[C@H](CC[C@@H]6[C@@H]5CC[C@]5(C)[C@@H](C7=CC(=O)OC7)CC[C@]65O)C4)O[C@@H]3C)O[C@@H]2C)C[C@H](O)[C@@H]1O [digitoxin] (10.0002 µM) | -0.0189 |
| c1ccc2[nH]c(-c3cscn3)nc2c1 [thiabendazole] (10 µM) | 0.0111 |
| CC(C)NCC(O)COc1ccc(CC(N)=O)cc1 (centres undefined) [atenolol] (10 µM) | 0.1 |
| CO[C@@]12[C@H](COC(N)=O)C3=C(C(=O)C(C)=C(N)C3=O)N1C[C@@H]1N[C@@H]12 [mitomycin c] (10.00353425 µM) | -0.105 |
| Cc1nnc(C(=O)NC(C)(C)c2nc(C(=O)NCc3ccc(F)cc3)c(O)c(=O)n2C)o1 [raltegravir] (10 µM) | 0.103 |
| CNC(=O)c1cc(Oc2ccc(NC(=O)Nc3ccc(Cl)c(C(F)(F)F)c3)c(F)c2)ccn1 [regorafenib] (20 µM) | 0.0492 |
| Clc1ccc(C(c2ccccc2Cl)C(Cl)Cl)cc1 (centres undefined) [mitotane] (10 µM) | -0.0195 |
| CCOC(=O)C(C)(C)Oc1ccc(Cl)cc1 [clofibrate] (10 µM) | -0.0306 |

3 records picked at random from the list so far:

| Compound | BRD4 median nuclear fluorescence intensity change (log2) |
| --- | --- |
| CNC(=C[N+](=O)[O-])NCCSCc1csc(CN(C)C)n1 [nizatidine] (10 µM) | 0.133 |
| Nc1ccn([C@H]2CC[C@@H](COP(=O)(O)OP(=O)(O)OP(=O)(O)O)O2)c(=O)n1 [dideoxycytidine 5'-triphosphate (ddctp)] (10 µM) | 0.173 |
| Clc1ccc(C(c2ccccc2Cl)C(Cl)Cl)cc1 (centres undefined) [mitotane] (10 µM) | -0.0195 |

(next part)

| Compound | BRD4 median nuclear fluorescence intensity change (log2) |
| --- | --- |
| OC(c1cc(C(F)(F)F)nc2c(C(F)(F)F)cccc12)C1CCCCN1 (centres undefined) [mefloquine] (10 µM) | 0.0285 |
| CC(C)[C@@H]1NC(=O)[C@H](CCCCN)NC(=O)[C@@H](Cc2c[nH]c3ccccc23)NC(=O)[C@H](Cc2ccc(O)cc2)NC(=O)[C@@H](NC(=O)[C@H](N)Cc2ccc3ccccc3c2)CSSC[C@@H](C(=O)N[C@H](C(N)=O)[C@@H](C)O)NC1=O [lanreotide acetate] (20 µM) | -0.0745 |
| CCc1c2c(nc3ccc(O)cc13)-c1cc3c(c(=O)n1C2)COC(=O)[C@]3(O)CC [7-ethyl-10-hydroxy-camptothecin] (10 µM) | -0.0581 |
| O=C1CCCC(=O)C1C(=O)c1ccc(C(F)(F)F)cc1[N+](=O)[O-] [nitisinone] (10 µM) | 0.0334 |
| CNS(=O)(=O)Cc1ccc2[nH]cc(CCN(C)C)c2c1 [sumatriptan] (10.0004 µM) | 0.0397 |
| N=C(N)NCC1COC2(CCCCC2)O1 (centres undefined) [guanadrel] (10 µM) | 0.0889 |
| S=P(N1CC1)(N1CC1)N1CC1 [thiotepa] (20 µM) | 0.292 |
| CCN(CC)Cc1cc(Nc2ccnc3cc(Cl)ccc23)ccc1O [amodiaquine] (10.0001 µM) | 0.0709 |
| Cc1ccc(Nc2nccc(N(C)c3ccc4c(C)n(C)nc4c3)n2)cc1S(N)(=O)=O [pazopanib] (11.455 µM) | 0.0311 |
| O=NN(CCCl)C(=O)NCCCl [carmustine] (20 µM) | -0.0298 |
| N=C(N)NC(=O)c1nc(Cl)c(N)nc1N [amiloride] (9.99961 µM) | 0.0486 |
| CCN(CC)C(=O)/C(C#N)=C/c1cc(O)c(O)c([N+](=O)[O-])c1 [entacapone] (10 µM) | 0.0329 |
| O=C(O)P(=O)(O)O [foscarnet] (10 µM) | 0.0245 |
| C[C@]12C=CC(=O)N[C@@H]1CC[C@@H]1[C@@H]2CC[C@]2(C)[C@@H](C(=O)Nc3cc(C(F)(F)F)ccc3C(F)(F)F)CC[C@@H]12 [dutasteride] (9.99927 µM) | 0.149 |
| CNC[C@H](O)c1ccc(O)c(O)c1 [epinephrine] (10 µM) | 0.174 |
| O=C(O)[C@H]1O[C@@H](Oc2ccc([C@@H]3[C@@H](CC[C@H](O)c4ccc(F)cc4)C(=O)N3c3ccc(F)cc3)cc2)[C@H](O)[C@@H](O)[C@@H]1O [ezetimibe glucuronide] (10 µM) | 0.138 |
| CNC1(C)C2CCC(C2)C1(C)C (centres undefined) [mecamylamine] (12.2 µM) | 0.0335 |
| CS(=O)(=O)c1ccc(C(=O)Nc2ccc(Cl)c(-c3ccccn3)c2)c(Cl)c1 [vismodegib] (20 µM) | -0.023 |
| CC(C)C(=O)Nc1ccc([N+](=O)[O-])c(C(F)(F)F)c1 [flutamide] (20 µM) | -0.11 |
